Laboratory results as given in the supplement of paper PMC10849652.
The list shows a part of the results.

Sequences of proteins named here, by UniProt entry; tags and fusion partners are left off. A change or cut given only in a name is not applied to a line headed by its entry.
UniProt P28702: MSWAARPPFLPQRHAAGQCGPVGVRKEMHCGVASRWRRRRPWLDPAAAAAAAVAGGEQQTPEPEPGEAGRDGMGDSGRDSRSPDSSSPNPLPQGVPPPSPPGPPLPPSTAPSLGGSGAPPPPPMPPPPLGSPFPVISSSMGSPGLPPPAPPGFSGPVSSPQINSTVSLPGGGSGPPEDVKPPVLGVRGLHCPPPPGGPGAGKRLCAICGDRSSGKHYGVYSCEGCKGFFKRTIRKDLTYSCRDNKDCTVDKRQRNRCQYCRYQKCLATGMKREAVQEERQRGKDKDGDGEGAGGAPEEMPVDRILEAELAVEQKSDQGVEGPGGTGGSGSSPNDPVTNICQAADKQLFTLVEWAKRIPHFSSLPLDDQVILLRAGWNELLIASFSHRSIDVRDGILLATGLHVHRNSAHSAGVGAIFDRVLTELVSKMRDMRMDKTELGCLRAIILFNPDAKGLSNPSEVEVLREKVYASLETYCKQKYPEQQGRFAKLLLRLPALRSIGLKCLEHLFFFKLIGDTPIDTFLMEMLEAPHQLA
UniProt Q9Y3V2: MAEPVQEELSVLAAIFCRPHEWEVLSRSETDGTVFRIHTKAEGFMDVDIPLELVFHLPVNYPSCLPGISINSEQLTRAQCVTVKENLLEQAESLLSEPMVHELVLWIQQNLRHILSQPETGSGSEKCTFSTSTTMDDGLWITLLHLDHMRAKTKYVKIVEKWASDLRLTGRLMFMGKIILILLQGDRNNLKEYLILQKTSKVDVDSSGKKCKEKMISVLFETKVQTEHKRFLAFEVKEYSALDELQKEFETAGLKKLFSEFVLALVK
UniProt Q9UJJ7: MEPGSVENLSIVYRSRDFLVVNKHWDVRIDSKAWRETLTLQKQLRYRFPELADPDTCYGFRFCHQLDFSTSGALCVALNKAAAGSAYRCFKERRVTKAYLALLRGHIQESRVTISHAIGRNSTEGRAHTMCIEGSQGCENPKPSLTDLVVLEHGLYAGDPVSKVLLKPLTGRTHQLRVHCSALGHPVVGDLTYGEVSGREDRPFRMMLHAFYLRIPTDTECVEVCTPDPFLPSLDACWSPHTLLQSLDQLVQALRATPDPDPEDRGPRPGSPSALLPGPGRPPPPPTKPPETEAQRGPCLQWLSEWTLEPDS
UniProt Q9UBS0: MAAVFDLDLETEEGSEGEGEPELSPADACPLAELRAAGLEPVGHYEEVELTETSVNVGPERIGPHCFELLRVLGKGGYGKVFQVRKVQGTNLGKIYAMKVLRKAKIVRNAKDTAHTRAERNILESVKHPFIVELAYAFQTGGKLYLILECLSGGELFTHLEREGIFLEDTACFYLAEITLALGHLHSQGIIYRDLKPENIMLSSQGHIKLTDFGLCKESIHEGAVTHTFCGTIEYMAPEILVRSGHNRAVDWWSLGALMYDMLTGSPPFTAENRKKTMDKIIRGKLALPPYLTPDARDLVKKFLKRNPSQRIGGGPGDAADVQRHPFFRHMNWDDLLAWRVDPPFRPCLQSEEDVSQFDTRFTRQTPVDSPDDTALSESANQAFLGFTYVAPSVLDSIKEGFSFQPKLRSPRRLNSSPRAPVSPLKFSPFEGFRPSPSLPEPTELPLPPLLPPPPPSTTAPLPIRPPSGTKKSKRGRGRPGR
UniProt P51812, whole entry, looked up: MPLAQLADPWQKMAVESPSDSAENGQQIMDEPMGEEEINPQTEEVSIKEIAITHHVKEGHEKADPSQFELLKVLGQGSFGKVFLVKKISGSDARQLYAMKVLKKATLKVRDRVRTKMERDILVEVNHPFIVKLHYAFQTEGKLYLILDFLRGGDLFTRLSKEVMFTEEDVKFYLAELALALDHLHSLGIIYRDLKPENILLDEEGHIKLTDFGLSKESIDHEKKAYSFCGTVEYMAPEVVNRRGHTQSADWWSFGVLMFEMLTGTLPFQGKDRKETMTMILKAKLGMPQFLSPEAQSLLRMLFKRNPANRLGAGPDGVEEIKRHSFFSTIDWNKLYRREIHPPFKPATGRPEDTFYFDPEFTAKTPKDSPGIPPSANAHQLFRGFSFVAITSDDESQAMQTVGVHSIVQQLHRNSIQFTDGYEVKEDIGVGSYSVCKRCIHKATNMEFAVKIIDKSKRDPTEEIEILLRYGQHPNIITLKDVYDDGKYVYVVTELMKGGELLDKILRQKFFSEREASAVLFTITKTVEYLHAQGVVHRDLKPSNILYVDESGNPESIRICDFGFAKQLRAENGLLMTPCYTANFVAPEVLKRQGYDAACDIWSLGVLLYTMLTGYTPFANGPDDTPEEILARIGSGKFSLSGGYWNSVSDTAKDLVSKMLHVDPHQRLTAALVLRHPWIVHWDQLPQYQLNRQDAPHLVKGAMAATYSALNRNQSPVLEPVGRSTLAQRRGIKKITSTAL
UniProt Q6P087: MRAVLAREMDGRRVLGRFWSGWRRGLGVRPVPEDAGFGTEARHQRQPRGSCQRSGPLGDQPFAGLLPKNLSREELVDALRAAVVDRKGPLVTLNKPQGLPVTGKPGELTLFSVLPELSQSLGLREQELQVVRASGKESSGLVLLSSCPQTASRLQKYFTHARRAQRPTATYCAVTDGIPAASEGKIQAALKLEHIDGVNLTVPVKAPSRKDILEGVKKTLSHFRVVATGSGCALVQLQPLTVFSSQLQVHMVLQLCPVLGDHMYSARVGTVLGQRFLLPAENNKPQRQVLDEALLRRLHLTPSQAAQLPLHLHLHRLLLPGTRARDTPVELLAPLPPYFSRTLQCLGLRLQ
UniProt Q8WXA3: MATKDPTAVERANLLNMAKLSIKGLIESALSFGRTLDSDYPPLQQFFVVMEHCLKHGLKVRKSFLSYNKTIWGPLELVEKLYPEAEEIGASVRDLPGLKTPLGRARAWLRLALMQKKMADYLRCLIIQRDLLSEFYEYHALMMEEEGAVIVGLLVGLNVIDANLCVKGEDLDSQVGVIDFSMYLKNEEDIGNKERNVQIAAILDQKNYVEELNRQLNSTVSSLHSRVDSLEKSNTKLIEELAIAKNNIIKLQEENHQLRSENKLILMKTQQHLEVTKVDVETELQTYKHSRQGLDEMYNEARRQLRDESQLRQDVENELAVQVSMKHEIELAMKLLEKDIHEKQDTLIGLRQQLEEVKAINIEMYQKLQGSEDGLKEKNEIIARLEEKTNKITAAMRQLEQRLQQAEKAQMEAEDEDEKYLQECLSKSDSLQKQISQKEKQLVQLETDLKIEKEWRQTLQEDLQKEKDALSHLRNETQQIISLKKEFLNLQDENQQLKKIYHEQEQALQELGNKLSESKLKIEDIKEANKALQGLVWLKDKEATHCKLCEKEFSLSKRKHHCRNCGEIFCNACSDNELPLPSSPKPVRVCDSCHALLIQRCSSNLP
UniProt Q9NYV6: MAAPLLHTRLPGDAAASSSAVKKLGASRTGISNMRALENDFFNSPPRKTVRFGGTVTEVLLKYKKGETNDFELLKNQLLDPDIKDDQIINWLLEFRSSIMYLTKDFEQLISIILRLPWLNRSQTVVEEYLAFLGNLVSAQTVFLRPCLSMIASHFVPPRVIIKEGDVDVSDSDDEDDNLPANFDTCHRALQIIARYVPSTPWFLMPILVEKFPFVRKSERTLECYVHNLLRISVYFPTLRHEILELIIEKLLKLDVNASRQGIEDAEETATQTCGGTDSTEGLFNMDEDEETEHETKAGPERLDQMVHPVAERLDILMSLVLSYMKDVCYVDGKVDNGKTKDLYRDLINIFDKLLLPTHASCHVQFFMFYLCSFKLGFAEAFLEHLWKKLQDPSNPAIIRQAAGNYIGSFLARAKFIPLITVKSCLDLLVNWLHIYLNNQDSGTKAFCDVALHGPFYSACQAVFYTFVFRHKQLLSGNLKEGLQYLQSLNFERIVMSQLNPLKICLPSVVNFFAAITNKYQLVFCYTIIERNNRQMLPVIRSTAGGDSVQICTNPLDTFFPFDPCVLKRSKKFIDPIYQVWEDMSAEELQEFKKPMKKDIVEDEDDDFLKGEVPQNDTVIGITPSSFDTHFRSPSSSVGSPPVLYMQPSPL
UniProt Q9Y2B1: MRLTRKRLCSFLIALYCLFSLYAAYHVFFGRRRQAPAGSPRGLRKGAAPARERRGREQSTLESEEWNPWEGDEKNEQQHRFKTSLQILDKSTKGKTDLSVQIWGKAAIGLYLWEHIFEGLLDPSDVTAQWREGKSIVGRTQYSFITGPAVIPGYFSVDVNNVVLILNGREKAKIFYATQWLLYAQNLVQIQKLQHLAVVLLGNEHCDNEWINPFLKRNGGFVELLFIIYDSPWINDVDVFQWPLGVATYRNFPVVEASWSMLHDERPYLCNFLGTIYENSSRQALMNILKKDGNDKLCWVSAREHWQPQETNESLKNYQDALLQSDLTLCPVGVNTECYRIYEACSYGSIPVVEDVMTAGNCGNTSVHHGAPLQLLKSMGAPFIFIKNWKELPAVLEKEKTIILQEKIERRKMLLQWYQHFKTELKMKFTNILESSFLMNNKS
UniProt Q96EU6: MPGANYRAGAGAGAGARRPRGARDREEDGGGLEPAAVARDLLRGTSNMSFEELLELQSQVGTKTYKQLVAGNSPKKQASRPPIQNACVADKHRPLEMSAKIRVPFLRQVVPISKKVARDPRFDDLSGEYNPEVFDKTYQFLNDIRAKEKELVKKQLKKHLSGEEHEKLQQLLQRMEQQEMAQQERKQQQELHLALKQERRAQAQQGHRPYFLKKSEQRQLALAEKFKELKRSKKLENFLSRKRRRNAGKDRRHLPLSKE
UniProt Q9HCY8: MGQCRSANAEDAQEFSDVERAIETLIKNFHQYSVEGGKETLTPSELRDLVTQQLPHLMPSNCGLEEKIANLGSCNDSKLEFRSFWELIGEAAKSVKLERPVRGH
UniProt A6ZKI3: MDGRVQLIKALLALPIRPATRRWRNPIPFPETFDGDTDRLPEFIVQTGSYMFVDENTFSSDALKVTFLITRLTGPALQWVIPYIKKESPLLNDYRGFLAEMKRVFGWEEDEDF
UniProt P60903, whole entry, looked up: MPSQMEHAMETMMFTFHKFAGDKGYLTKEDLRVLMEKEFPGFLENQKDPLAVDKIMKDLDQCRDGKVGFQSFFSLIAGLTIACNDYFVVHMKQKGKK
UniProt Q9P2E9: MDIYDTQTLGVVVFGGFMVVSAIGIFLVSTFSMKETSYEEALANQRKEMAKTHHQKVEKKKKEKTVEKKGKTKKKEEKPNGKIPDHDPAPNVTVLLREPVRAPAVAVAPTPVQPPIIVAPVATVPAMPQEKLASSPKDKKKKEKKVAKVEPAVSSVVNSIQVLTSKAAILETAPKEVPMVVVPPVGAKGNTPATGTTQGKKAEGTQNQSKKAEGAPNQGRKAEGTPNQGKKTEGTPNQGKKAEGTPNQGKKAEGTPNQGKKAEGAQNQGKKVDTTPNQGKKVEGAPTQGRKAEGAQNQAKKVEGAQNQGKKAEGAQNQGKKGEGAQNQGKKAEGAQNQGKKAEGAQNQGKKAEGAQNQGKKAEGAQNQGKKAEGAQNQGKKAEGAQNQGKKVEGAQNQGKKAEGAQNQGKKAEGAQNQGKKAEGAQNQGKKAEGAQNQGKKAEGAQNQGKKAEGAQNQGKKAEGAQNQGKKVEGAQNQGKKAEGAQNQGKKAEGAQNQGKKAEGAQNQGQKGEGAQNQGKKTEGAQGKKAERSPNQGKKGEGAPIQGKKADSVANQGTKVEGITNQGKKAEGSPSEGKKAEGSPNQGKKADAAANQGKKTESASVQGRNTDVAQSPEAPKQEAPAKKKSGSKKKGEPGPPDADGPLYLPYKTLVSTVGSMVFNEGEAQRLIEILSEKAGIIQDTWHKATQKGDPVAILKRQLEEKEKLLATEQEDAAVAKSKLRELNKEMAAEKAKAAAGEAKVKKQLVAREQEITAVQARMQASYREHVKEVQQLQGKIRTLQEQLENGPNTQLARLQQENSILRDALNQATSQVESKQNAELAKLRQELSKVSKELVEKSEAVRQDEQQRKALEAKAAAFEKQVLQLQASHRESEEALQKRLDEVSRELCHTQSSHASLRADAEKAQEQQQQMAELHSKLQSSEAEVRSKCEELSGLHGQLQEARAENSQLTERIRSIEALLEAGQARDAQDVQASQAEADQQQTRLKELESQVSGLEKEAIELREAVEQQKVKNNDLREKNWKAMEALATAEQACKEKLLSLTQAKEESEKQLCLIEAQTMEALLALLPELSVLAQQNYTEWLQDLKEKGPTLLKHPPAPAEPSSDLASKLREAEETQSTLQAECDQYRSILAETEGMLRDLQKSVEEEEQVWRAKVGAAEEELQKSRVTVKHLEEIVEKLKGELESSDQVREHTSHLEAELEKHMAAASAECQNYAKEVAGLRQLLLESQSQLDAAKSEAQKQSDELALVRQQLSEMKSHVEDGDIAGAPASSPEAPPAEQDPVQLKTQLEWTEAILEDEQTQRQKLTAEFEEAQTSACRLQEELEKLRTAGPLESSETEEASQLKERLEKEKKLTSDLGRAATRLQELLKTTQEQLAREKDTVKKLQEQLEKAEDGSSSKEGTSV
UniProt Q86SG5: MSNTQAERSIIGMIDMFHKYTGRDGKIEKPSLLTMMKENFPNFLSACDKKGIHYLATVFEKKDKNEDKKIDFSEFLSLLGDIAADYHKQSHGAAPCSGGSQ
UniProt P80511: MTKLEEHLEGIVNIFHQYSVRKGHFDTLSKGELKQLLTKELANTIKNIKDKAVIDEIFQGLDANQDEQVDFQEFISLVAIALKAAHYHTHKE

The targets below were run with CN1CC[C@H](c2c(O)cc(O)c3c(=O)cc(-c4ccccc4Cl)oc23)[C@H](O)C1 [alvocidib] (assay: log2 fold change, soluble protein after heating vs DMSO (PISA); higher = thermal stabilisation; K562 lysate, 10 uM; active = over 0.2 and 3.5 SD of the protein, either way, in both replicates (recomputed)).
Outline: (§1)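 Dounce homogenisation of K562 pellets in PBS pH 7.4 with 1 mM MgCl2 produced a crude extract, used at 1 mg/mL protein. Exposure to 10 μM compound lasted 30 min, and aliquots were then heated for 3 min across 48°C-58°C, pooled and brought to 0.5% NP-40 at 4°C. The supernatant after 21,000xg for 90 min was quantified by TMTpro 16plex LC-MS/MS with channel sums equalised. Duplicate values are given as log-two fold change in thermal stability relative to solvent controls.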

Target | log2 fold change
RTN4, A0A0U1RQR6 | inactive: -0.037
RPSA (UniProt F8WD59) | inactive: 0.092
RXRB isoform 3 (UniProt P28702) | inactive: 0.008
RWDD3 (UniProt Q9Y3V2) | inactive: -0.089
RPUSD1 (UniProt Q9UJJ7) | inactive: 0.064
RPS6KB2 (UniProt Q9UBS0) | inactive: 0.09
RPS6KA3 (UniProt P51812) | inactive: 0.306
RPUSD3 (UniProt Q6P087) | inactive: 0.018
S100A16 (UniProt Q96FQ6) | inactive: 0.043
RUNDC1 (UniProt Q96C34) | inactive: -0.024
RUFY2 isoform 1 (UniProt Q8WXA3) | inactive: 0.01
RRN3 (UniProt Q9NYV6) | inactive: 0.02

What follows are targets tested with CN1CCc2c(c3ccccc3n2Cc2ccc(C(=O)NO)cc2)C1 [Tubastatin A] in the same assay as above.
Outline: as §1

Target | log2 fold change
RXYLT1 (UniProt Q9Y2B1) | inactive: -0.058
RTN4, A0A0U1RQR6 | inactive: 0.243
RRP36 (UniProt Q96EU6) | inactive: -0.035
RPS19 (UniProt M0R2L9) | inactive: 0.199
RPS3 (UniProt E9PJN9) | inactive: -0.183
RWDD3 (UniProt Q9Y3V2) | inactive: 0.177
S100A14 (UniProt Q9HCY8) | inactive: 0.168
RTL8C (UniProt A6ZKI3) | inactive: -0.098
RPUSD1 (UniProt Q9UJJ7) | inactive: -0.033
RPS6KA3 (UniProt P51812) | inactive: -0.151
RWDD2B (UniProt P57060) | inactive: -0.033
RUNDC1 (UniProt Q96C34) | inactive: -0.321
S100A10 (UniProt P60903) | inactive: -0.076
RUFY2 isoform 1 (UniProt Q8WXA3) | inactive: 0.074
RRN3 (UniProt Q9NYV6) | inactive: -0.033
RRBP1 isoform 3 (UniProt Q9P2E9) | inactive: 0.018

What follows are targets tested with CNC(=O)C1=CC=CC=C1NC2=NC(=NC=C2Cl)NC3=C(C=C(C=C3)N4CCOCC4)OC in the same assay as above.
Outline: as §1

Target | log2 fold change
RPS7, A0A2R8Y623 | inactive: -0.207
RXYLT1 (UniProt Q9Y2B1) | inactive: -0.163
S100A7A (UniProt Q86SG5) | inactive: 0.031
RRP36 (UniProt Q96EU6) | inactive: 0.112
RPS19 (UniProt M0R2L9) | inactive: -0.296
RTN4R (UniProt Q9BZR6) | inactive: -0.103
RXRB isoform 3 (UniProt P28702) | inactive: 0.126
S100A14 (UniProt Q9HCY8) | inactive: -0.024
RTL8C (UniProt A6ZKI3) | inactive: -0.139
RPS6KB2 (UniProt Q9UBS0) | inactive: 0.222
RPUSD3 (UniProt Q6P087) | inactive: -0.036
RWDD2B (UniProt P57060) | inactive: 0.034
RUNDC1 (UniProt Q96C34) | inactive: 0.072
S100A10 (UniProt P60903) | inactive: -0.01
RRBP1 isoform 3 (UniProt Q9P2E9) | inactive: -0.074

What follows are targets tested with CNC(=O)c1ccc(Nc2ncc(C(F)(F)F)c(NCc3nccnc3N(C)S(C)(=O)=O)n2)cc1 [defactinib] in the same assay as above.
Outline: as §1

Target | log2 fold change
S100A12 (UniProt P80511) | inactive: -1.68
RTL8A (UniProt Q9BWD3) | inactive: 0.075
RPS7, A0A2R8Y623 | inactive: 0.075
RRP36 (UniProt Q96EU6) | inactive: -0.169
RPS19 (UniProt M0R2L9) | inactive: 0.152
RPS3 (UniProt E9PJN9) | inactive: -0.064
RXRB isoform 3 (UniProt P28702) | inactive: 0.05
RTL8C (UniProt A6ZKI3) | inactive: -0.055
RPUSD1 (UniProt Q9UJJ7) | inactive: -0.016
RPS6KA3 (UniProt P51812) | active: 0.433
RPUSD3 (UniProt Q6P087) | inactive: -0.003
RWDD2B (UniProt P57060) | inactive: 0.017
RPP30 (UniProt Q5VU11) | inactive: -0.215
RUFY2 isoform 1 (UniProt Q8WXA3) | inactive: 0.066
RRN3 (UniProt Q9NYV6) | inactive: -0.032
RRBP1 isoform 3 (UniProt Q9P2E9) | inactive: 0.088

These targets were tested with CNc1nc(-c2ccc3c(N)n[nH]c3c2)cc(N2C[C@@H](C(=O)NC3CCCCC3)CC[C@H]2C)n1 in the same assay as above.
Outline: as §1

Target | log2 fold change
RPS7, A0A2R8Y623 | inactive: -0.124
RXYLT1 (UniProt Q9Y2B1) | inactive: -0.065
RSRP1 (UniProt Q9BUV0) | inactive: -0.072
RRP36 (UniProt Q96EU6) | inactive: 0.239
RPS19 (UniProt M0R2L9) | inactive: 0.015
RPSA (UniProt F8WD59) | inactive: -0.053
RXRB isoform 3 (UniProt P28702) | inactive: -0.003
RWDD3 (UniProt Q9Y3V2) | inactive: -0.204
S100A14 (UniProt Q9HCY8) | inactive: -0.373
RTL8C (UniProt A6ZKI3) | inactive: -0.101
RPUSD1 (UniProt Q9UJJ7) | inactive: 0.179
RPS6KB2 (UniProt Q9UBS0) | inactive: -0.037
RPS6KA3 (UniProt P51812) | inactive: -0.017
RPUSD3 (UniProt Q6P087) | inactive: -0.054
RWDD2B (UniProt P57060) | inactive: 0.125
RUNDC1 (UniProt Q96C34) | inactive: 0.083
RTEL1 isoform 2 (UniProt Q9NZ71) | inactive: -0.014
S100A10 (UniProt P60903) | inactive: -0.171
RRN3 (UniProt Q9NYV6) | inactive: 0.005
RSC1A1 (UniProt Q92681) | inactive: -0.128
RRBP1 isoform 3 (UniProt Q9P2E9) | inactive: -0.011
